The match of structure and compound is tentative.
Biological target: human GlyT1c transporter (Homo sapiens, UniProt P48067)
Experiment: Radioligand binding assay using recombinant CHO cell membranes expressing human GlyT1
Conditions: read-out: radioligand binding Kiapp, values given as upper bounds

The chains behind the UniProt entries cited, without tags or fusion partners.
UniProt P48067, whole entry: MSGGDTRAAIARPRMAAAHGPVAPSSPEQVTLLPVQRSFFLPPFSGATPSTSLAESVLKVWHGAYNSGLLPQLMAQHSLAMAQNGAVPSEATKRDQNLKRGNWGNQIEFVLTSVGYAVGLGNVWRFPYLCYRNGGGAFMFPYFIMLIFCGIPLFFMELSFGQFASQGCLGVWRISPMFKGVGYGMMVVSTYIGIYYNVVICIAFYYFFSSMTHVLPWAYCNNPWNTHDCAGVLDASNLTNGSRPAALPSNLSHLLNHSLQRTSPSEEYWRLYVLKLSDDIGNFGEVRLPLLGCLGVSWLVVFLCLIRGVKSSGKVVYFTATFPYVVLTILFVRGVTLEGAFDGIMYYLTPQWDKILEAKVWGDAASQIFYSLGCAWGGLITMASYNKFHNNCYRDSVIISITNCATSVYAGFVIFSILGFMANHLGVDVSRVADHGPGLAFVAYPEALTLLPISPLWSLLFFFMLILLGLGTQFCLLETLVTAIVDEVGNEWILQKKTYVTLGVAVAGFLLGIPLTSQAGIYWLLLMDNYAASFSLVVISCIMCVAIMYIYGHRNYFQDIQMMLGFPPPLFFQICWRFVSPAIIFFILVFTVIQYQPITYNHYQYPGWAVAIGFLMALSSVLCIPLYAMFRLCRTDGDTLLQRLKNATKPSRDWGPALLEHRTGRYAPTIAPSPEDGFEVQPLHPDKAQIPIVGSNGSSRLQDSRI

With `Cn1cnc(S(=O)(=O)NCc2ccc3c(c2)[C@@H](Cc2ccccc2)[C@@H](N2CCC2)CO3)c1` (relative stereo) the Ki was at most 10 nM.
